Here are results for 30 molecules from the supplement of paper PMC4604168 (melanoma cell lines).

The list shows a part of the results. Single values are uncertain, as repeats are few or missing.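 The apoptosis fraction was the count of cleaved-PARP antibody-stained nuclei relative to all DNA-stained nuclei, imaged in 1,536-well plates. Screening doses were set so most cells survived, and baseline and induced cleaved-PARP levels vary greatly across cell lines.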

This experiment concerns A375. Briefly: cleaved PARP positive nuclei fraction relative to DMSO control; melanoma cells; higher = more apoptosis. Particulars: library dose: low library concentration; 72 h.
Regarding `O=C(O)c1ccc2c(c1)nc(Nc1cccc(Cl)c1)c1ccncc12` + O=C(Nc1cccc(Cl)c1)Nc1ncc(CCNc2ncnc3ccsc23)s1 [SNS314] (first compound 0.4 µM, partner dose 0.0008 µM), the “cleaved PARP positive nuclei fraction” value was 84.5%.
For `Nc1nc(F)nc2c1ncn2[C@@H]1O[C@H](CO)[C@@H](O)[C@@H]1O` [fludarabine] + C=CCn1c(=O)c2cnc(Nc3ccc(N4CCN(C)CC4)cc3)nc2n1-c1cccc(C(C)(C)O)n1 [MK1775] (first compound 0.2 µM, partner dose 0.02 µM) the value was 9460%; for `Nc1ccn([C@@H]2O[C@H](CO)[C@@H](O)C2(F)F)c(=O)n1` [gemcitabine] + COc1cc(Nc2ncc(F)c(Nc3ccc4c(n3)NC(=O)C(C)(C)O4)n2)cc(OC)c1OC [Tamatinib] (first compound 0.0004 µM, partner dose 0.4 µM), 406%; for `Cn1c(=O)n(-c2ccc(C(C)(C)C#N)cc2)c2c3cc(-c4cnc5ccccc5c4)ccc3ncc21` + COc1cc2c(Oc3ccc4[nH]c(C)cc4c3F)ncnc2cc1OCCCN1CCCC1 [cediranib] (first compound 0.004 µM, partner dose 0.4 µM), 83.1%.
As for `Cc1cc(Nc2cc(N3CCN(C)CC3)nc(/C=C/c3ccccc3)n2)n[nH]1` + NC(=O)Nc1cc(-c2cccc(F)c2)sc1C(=O)N[C@H]1CCCNC1 [AZD7762] (first compound 0.04 µM, partner dose 0.02 µM), the figure is 70.2%.
As for `Nc1nc(F)nc2c1ncn2[C@@H]1O[C@H](CO)[C@@H](O)[C@@H]1O` [fludarabine] + O=C(Nc1cccc(Cl)c1)Nc1ncc(CCNc2ncnc3ccsc23)s1 [SNS314] (first compound 0.2 µM, partner dose 0.0008 µM), the figure is 5650%; as for `CS(=O)(=O)CCNCc1ccc(-c2ccc3ncnc(Nc4ccc(OCc5cccc(F)c5)c(Cl)c4)c3c2)o1` [lapatinib] + CN(NC(=O)CC(=O)NN(C)C(=S)c1ccccc1)C(=S)c1ccccc1 [STA4783] (first compound 0.8 µM, partner dose 0.006 µM), 2000%; as for `CC(C)C[C@H](NC(=O)[C@H](Cc1ccccc1)NC(=O)c1cnccn1)B(O)O` [Bortezomib] + CO[C@@H]1[C@H](N(C)C(=O)c2ccccc2)C[C@H]2O[C@]1(C)n1c3ccccc3c3c4c(c5c6ccccc6n2c5c31)C(=O)NC4 [Midostaurin] (first compound 0.001 µM, partner dose 0.08 µM), 48.9%.
Take `C[C@@H](Oc1cc(-c2cnn(C3CCNCC3)c2)cnc1N)c1c(Cl)ccc(F)c1Cl` [Crizotinib] + O=C(O)c1ccc(-c2c[nH]c3ncc(-c4ccccc4)cc23)cc1C1CCCC1 [GSK650394] (first compound 0.2 µM, partner dose 0.16 µM): the “cleaved PARP positive nuclei fraction” value amounted to 43.1%.
As for `CS(=O)(=O)CCNCc1ccc(-c2ccc3ncnc(Nc4ccc(OCc5cccc(F)c5)c(Cl)c4)c3c2)o1` [lapatinib] + NC(=O)Nc1cc(-c2cccc(F)c2)sc1C(=O)N[C@H]1CCCNC1 [AZD7762] (first compound 0.8 µM, partner dose 0.02 µM), the figure is 527%; as for `CNC(=O)c1cc(Oc2ccc(NC(=O)Nc3ccc(Cl)c(C(F)(F)F)c3)cc2)ccn1` [sorafenib] + NC(=O)Nc1cc(-c2cccc(F)c2)sc1C(=O)N[C@H]1CCCNC1 [AZD7762] (first compound 0.4 µM, partner dose 0.02 µM), 102%.
For `CN1CCN(c2ccc3nc(-c4c(N)c5c(F)cccc5[nH]c4=O)[nH]c3c2)CC1` [Dovitinib] + NCC(=O)Nc1ccc(-n2nc(C(F)(F)F)cc2-c2ccc3c(ccc4ccccc43)c2)cc1 [OSU03012] (first compound 0.1 µM, partner dose 1 µM) the value was 7230%.
For `C=C(c1ccc(C(=O)O)cc1)c1cc2c(cc1C)C(C)(C)CCC2(C)C` [Bexarotene] + NC(=O)Nc1cc(-c2cccc(F)c2)sc1C(=O)N[C@H]1CCCNC1 [AZD7762] (first compound 2 µM, partner dose 0.02 µM) the value was 292%.
For the molecule `Cn1c(=O)n(-c2ccc(C(C)(C)C#N)cc2)c2c3cc(-c4cnc5ccccc5c4)ccc3ncc21` + Cn1cncc1[C@@](N)(c1ccc(Cl)cc1)c1ccc2c(c1)c(-c1cccc(Cl)c1)cc(=O)n2C [tipifarnib] (first compound 0.004 µM, partner dose 0.01 µM), the “cleaved PARP positive nuclei fraction” value came to 251%.
For `C[C@@H](Oc1cc(-c2cnn(C3CCNCC3)c2)cnc1N)c1c(Cl)ccc(F)c1Cl` [Crizotinib] + CN(NC(=O)CC(=O)NN(C)C(=S)c1ccccc1)C(=S)c1ccccc1 [STA4783] (first compound 0.2 µM, partner dose 0.006 µM) the value was 1520%; for `CC(C)C[C@H](NC(=O)[C@H](Cc1ccccc1)NC(=O)c1cnccn1)B(O)O` [Bortezomib] + COc1cc2c(Oc3ccc4[nH]c(C)cc4c3F)ncnc2cc1OCCCN1CCCC1 [cediranib] (first compound 0.001 µM, partner dose 0.4 µM), 56.3%.
As for `Cc1cc(Nc2cc(N3CCN(C)CC3)nc(/C=C/c3ccccc3)n2)n[nH]1` + Cc1cc(N2CCOCC2)cc2[nH]c(-c3c(NC[C@@H](O)c4cccc(Cl)c4)cc[nH]c3=O)nc12 [BMS536924] (first compound 0.04 µM, partner dose 0.2 µM), the figure is 145%; as for `C[C@@H](Oc1cc(-c2cnn(C3CCNCC3)c2)cnc1N)c1c(Cl)ccc(F)c1Cl` [Crizotinib] + CC1(C)NC(=O)N(c2ccc([N+](=O)[O-])c(C(F)(F)F)c2)C1=O [nilutamide] (first compound 0.2 µM, partner dose 1 µM), 39.4%.
For `Cn1c(=O)n(-c2ccc(C(C)(C)C#N)cc2)c2c3cc(-c4cnc5ccccc5c4)ccc3ncc21` + NC(=O)Nc1cc(-c2cccc(F)c2)sc1C(=O)N[C@H]1CCCNC1 [AZD7762] (first compound 0.004 µM, partner dose 0.02 µM) the value was 1340%; for `CC(C)C[C@H](NC(=O)[C@H](Cc1ccccc1)NC(=O)c1cnccn1)B(O)O` [Bortezomib] + O=C(O)c1ccc(-c2c[nH]c3ncc(-c4ccccc4)cc23)cc1C1CCCC1 [GSK650394] (first compound 0.001 µM, partner dose 0.16 µM), 20%; for `C[C@@H](Oc1cc(-c2cnn(C3CCNCC3)c2)cnc1N)c1c(Cl)ccc(F)c1Cl` [Crizotinib] + C[C@@H]1CCN(C(=O)CC#N)C[C@@H]1N(C)c1ncnc2[nH]ccc12 [CP690550] (first compound 0.2 µM, partner dose 1 µM), 244%.
With `CC(C)C[C@H](NC(=O)[C@H](Cc1ccccc1)NC(=O)c1cnccn1)B(O)O` [Bortezomib] + Cc1cc(N2CCOCC2)cc2[nH]c(-c3c(NC[C@@H](O)c4cccc(Cl)c4)cc[nH]c3=O)nc12 [BMS536924] (first compound 0.001 µM, partner dose 0.2 µM), the “cleaved PARP positive nuclei fraction” value was 184%.
For `Nc1ccn([C@@H]2O[C@H](CO)[C@@H](O)C2(F)F)c(=O)n1` [gemcitabine] + CC(C)(C)c1cnc(CSc2cnc(NC(=O)C3CCNCC3)s2)o1 [SNS-032] (first compound 0.0004 µM, partner dose 0.01 µM) the value was 71.4%; for `CCCS(=O)(=O)Nc1ccc(F)c(C(=O)c2c[nH]c3ncc(Cl)cc23)c1F` + C=CCn1c(=O)c2cnc(Nc3ccc(N4CCN(C)CC4)cc3)nc2n1-c1cccc(C(C)(C)O)n1 [MK1775] (first compound 0.08 µM, partner dose 0.02 µM), 373%.
As for `Nc1ccn([C@@H]2O[C@H](CO)[C@@H](O)C2(F)F)c(=O)n1` [gemcitabine] + CC1(C)NC(=O)N(c2ccc([N+](=O)[O-])c(C(F)(F)F)c2)C1=O [nilutamide] (first compound 0.0004 µM, partner dose 1 µM), the figure is 145%; as for `CC(C)C[C@H](NC(=O)[C@H](Cc1ccccc1)NC(=O)c1cnccn1)B(O)O` [Bortezomib] + Cc1ccc(NC(=O)c2cccc(N(C)C)c2)cc1NC(=O)c1ccc(O)cc1 [ZM336372] (first compound 0.001 µM, partner dose 2 µM), 164%; as for `CCCS(=O)(=O)Nc1ccc(F)c(C(=O)c2c[nH]c3ncc(Cl)cc23)c1F` + CN(NC(=O)CC(=O)NN(C)C(=S)c1ccccc1)C(=S)c1ccccc1 [STA4783] (first compound 0.08 µM, partner dose 0.006 µM), 5680%.
For `O=C(O)[C@@H]1[O][Sb](=[O])([O][Sb]2(=[O])[O][C@H]([C@H](O)CO)[C@H](O)[C@H](C(=O)O)[O]2)[O][C@H]([C@H](O)CO)[C@@H]1O` (stereo not given in full) [stibogluconate] + C[C@@H]1CCN(C(=O)CC#N)C[C@@H]1N(C)c1ncnc2[nH]ccc12 [CP690550] (first compound 2 µM, partner dose 1 µM) the value was 80%; for `C=C(c1ccc(C(=O)O)cc1)c1cc2c(cc1C)C(C)(C)CCC2(C)C` [Bexarotene] + Cc1ccc(NC(=O)c2cccc(N(C)C)c2)cc1NC(=O)c1ccc(O)cc1 [ZM336372] (first compound 2 µM, partner dose 2 µM), 72.3%; for `Cc1cc(Nc2cc(N3CCN(C)CC3)nc(/C=C/c3ccccc3)n2)n[nH]1` + CO[C@@H]1[C@H](N(C)C(=O)c2ccccc2)C[C@H]2O[C@]1(C)n1c3ccccc3c3c4c(c5c6ccccc6n2c5c31)C(=O)NC4 [Midostaurin] (first compound 0.04 µM, partner dose 0.08 µM), 169%.
